Data as given in PubChem BioAssay AID330 (DTP/NCI, 2004).
The list shows only some results of the screen, not a fair sample: it is rich in T/C values a quarter to a half above the control, in often repeated tests (any T/C) and in doses without a T/C. Other doses and runs of a compound stand elsewhere. T/C: endpoint of the treated group in % of that of the vehicle group. Some entries give survivors of the animals treated and no T/C: the source holds a T/C of zero for them, seemingly a mark for toxic or unscored doses. Some survivor counts are full or nearly so, which does not show that the dose was tolerated: survival well below the control is almost never listed, so the zero probably covers shortened survival too. Survivors were counted at the toxicity check, usually on the fifth day, unless a day is given; later deaths do not show. Schedule codes are those of the source, taken here to give the interval after Q, in days (D) or hours (H), and the number of doses after X. Marks such as (2×) say how often a value occurs here. Some doses were run more than once; their values stand side by side, smallest first. For survival time, the PubChem record calls one and a half times the control and up active, and a quarter to a half above the control has no call in these data; cut-offs in other NCI protocols can differ. Some structures stand for samples that the source files as different forms (salt, stereo form or complex); doses refer to the form tested. Some T/C values are followed by the survivors on the day toxicity was checked, most often the fifth; where none is given, no animal had died by that day.

System: P388 leukemia ip, CD2F1 mice, survival T/C
Experiment: NCI In Vivo Anticancer Drug Screen. Data for tumor model P388 Leukemia (intraperitoneal) in CD2F1 (CDF1) mice
Conditions: T/C endpoint: median survival time, higher T/C = longer survival
[1] = dose: 50.0 mg/kg/injection, schedule: Q01DX009 (ip), vehicle: saline
[2] = dose: 100.0 mg/kg/injection, schedule: Q01DX009 (ip), vehicle: saline
[3] = dose: 200.0 mg/kg/injection, schedule: Q01DX009 (ip), vehicle: saline
[4] = dose: 400.0 mg/kg/injection, schedule: Q01DX009 (ip), vehicle: saline
[5] = dose: 60.0 mg/kg/injection, schedule: Q01DX005 (ip), vehicle: saline with Tween-80
[6] = dose: 120.0 mg/kg/injection, schedule: Q01DX005 (ip), vehicle: saline with Tween-80
[7] = dose: 240.0 mg/kg/injection, schedule: Q01DX005 (ip), vehicle: saline with Tween-80
[8] = dose: 4.0 mg/kg/injection, schedule: Q01DX009 (ip), vehicle: water
[9] = dose: 50.0 mg/kg/injection, schedule: Q01DX005 (ip), vehicle: Klucel (hydroxypropylcellulose) (HPC)
[10] = dose: 0.2 mg/kg/injection, schedule: Q01DX009 (ip), vehicle: carboxymethylcellulose (CMC)

For `C(CSC1=NCCN1)CSC1=NCCN1`, the T/C [1] was 131 % of control, the T/C [2] was 138 and 142 % of control and the survivor count [3] was 3 of 6. The survivor count [4] was 0 of 6.
For `CC1=NCC[N-]CC[N-]CCN=C(C)C2CCCC1[N-]2.[Mn+3]`, the survivor count [5] was 0 of 6, the survivor count [6] was 0 of 6 and the survivor count [7] was 0 of 6.
`COc1cccc2c1C(=O)c1c(O)c3c(c(O)c1C2=O)C[C@@](O)(C(C)=O)CC3OC1CC(NC(=O)C(C)N)C(O)C(C)O1` (stereo partly specified) was tested, and the T/C (dose: 25.0 mg/kg/injection, schedule: Q04DX003 (ip), vehicle: saline) was 126 % of control.
For `CCCCN(CCCC)CCOc1ccc(/C(CC)=C(/CC)c2ccc(OCCN(CCCC)CCCC)cc2)cc1`, the survivor count (dose: 100.0 mg/kg/injection, schedule: Q01DX005 (ip), vehicle: saline) was 3 of 6 and the survivor count (dose: 200.0 mg/kg/injection, schedule: Q01DX005 (ip), vehicle: saline) was 0 of 6.
With `Nc1nc([Se])c2ncn(C3OC(CO)C(O)C3O)c2n1` (stereo unspecified) the T/C (dose: 1.0 mg/kg/injection, schedule: Q01DX009 (ip), vehicle: saline) was 136 % of control, the T/C (dose: 2.0 mg/kg/injection, schedule: Q01DX009 (ip), vehicle: saline) was 138 and 142 % of control and the T/C (dose: 2.0 mg/kg/injection, schedule: Q01DX009 (ip), vehicle: water) was 134 and 136 % of control. The T/C (dose: 3.12 mg/kg/injection, schedule: Q01DX009 (ip), vehicle: saline) was 144 % of control, the T/C (dose: 4.0 mg/kg/injection, schedule: Q01DX009 (ip), vehicle: saline) was 145 % of control and the T/C [8] was 136 and 140 % of control. The T/C (dose: 8.0 mg/kg/injection, schedule: Q01DX009 (ip), vehicle: saline) was 148 % of control, the T/C (dose: 8.0 mg/kg/injection, schedule: Q01DX009 (ip), vehicle: water) was 139 % of control and the survivor count (dose: 64.0 mg/kg/injection, schedule: Q01DX009 (ip), vehicle: saline) was 2 of 6.
For `CN1C(NC(=O)C(C)(C)O)C(C)(C)C(C)(C)C1NC(=O)C(C)(C)O` (stereo unspecified), the T/C [5] was 131 % of control, the T/C [6] was 132 % of control and the T/C [7] was 139 % of control.
With `CCCn1c(CC)nc([N+](=O)[O-])c1Sc1ncn[nH]1` the T/C [9] was 127 % of control, the T/C (dose: 100.0 mg/kg/injection, schedule: Q01DX005 (ip), vehicle: Klucel (hydroxypropylcellulose) (HPC)) was 126 and 136 % of control and the survivor count (dose: 200.0 mg/kg/injection, schedule: Q01DX005 (ip), vehicle: Klucel (hydroxypropylcellulose) (HPC)) was 3 of 5.
In the case of `O=c1[nH]c2nc3ccccc3n2nc1-c1ccccc1`, the survivor count (dose: 200.0 mg/kg/injection, schedule: Q01DX001 (ip), vehicle: Klucel (hydroxypropylcellulose) (HPC)) is reported as 2 of 6 and the survivor count (dose: 400.0 mg/kg/injection, schedule: Q01DX001 (ip), vehicle: Klucel (hydroxypropylcellulose) (HPC)) is reported as 0 of 6.
`Brc1cccc(C(Nc2nncs2)Nc2nncs2)c1` was tested, and the T/C (dose: 400.0 mg/kg/injection, schedule: Q04DX002 (ip), vehicle: saline with Tween-80) was 135 % of control.
For `COc1cc(C2c3c(oc4ccccc4c3=O)Oc3oc4ccccc4c(=O)c32)cc(OC)c1O`, the survivor count [5] was 6 of 6.
For `CC1=CCC(CC2CO2)C1(C)C` (stereo unspecified), the survivor count [3] was 6 of 6.
For `CCC(C)Nc1ccc(N)cc1` (stereo unspecified), the T/C (dose: 0.01 mg/kg/injection, schedule: Q01DX009 (ip), vehicle: carboxymethylcellulose (CMC)) was 142 % of control, the T/C (dose: 0.02 mg/kg/injection, schedule: Q01DX009 (ip), vehicle: carboxymethylcellulose (CMC)) was 128 % of control and the T/C (dose: 0.05 mg/kg/injection, schedule: Q01DX009 (ip), vehicle: carboxymethylcellulose (CMC)) was 141 and 145 % of control. The T/C (dose: 0.1 mg/kg/injection, schedule: Q01DX009 (ip), vehicle: carboxymethylcellulose (CMC)) was 128 % of control [5 of 6 alive], the T/C [10] was 134 % of control [5 of 6 alive] and the survivor count [10] was 0 of 6 and 6 of 6. The T/C (dose: 0.4 mg/kg/injection, schedule: Q01DX009 (ip), vehicle: carboxymethylcellulose (CMC)) was 138 % of control, the survivor count (dose: 0.8 mg/kg/injection, schedule: Q01DX009 (ip), vehicle: carboxymethylcellulose (CMC)) was 1 of 6 and 3 of 6 and the survivor count (dose: 1.56 mg/kg/injection, schedule: Q01DX009 (ip), vehicle: carboxymethylcellulose (CMC)) was 2 of 6. The survivor count (dose: 3.12 mg/kg/injection, schedule: Q01DX009 (ip), vehicle: carboxymethylcellulose (CMC)) was 0 of 6, the survivor count (dose: 6.25 mg/kg/injection, schedule: Q01DX009 (ip), vehicle: carboxymethylcellulose (CMC)) was 0 of 6 and the T/C (dose: 12.5 mg/kg/injection, schedule: Q01DX009 (ip), vehicle: Klucel (hydroxypropylcellulose) (HPC), evaluated on day 20) was 88 % of control. The T/C (dose: 12.5 mg/kg/injection, schedule: Q01DX009 (ip), vehicle: Klucel (hydroxypropylcellulose) (HPC), evaluated on day 30) was 90 % of control (2×), the survivor count (dose: 12.5 mg/kg/injection, schedule: Q01DX009 (ip), vehicle: Klucel (hydroxypropylcellulose) (HPC)) was 5 of 6 and the survivor count (dose: 25.0 mg/kg/injection, schedule: Q01DX009 (ip), vehicle: Klucel (hydroxypropylcellulose) (HPC)) was 0 of 6 (2×). For the same molecule, the survivor count (dose: 50.0 mg/kg/injection, schedule: Q01DX009 (ip), vehicle: Klucel (hydroxypropylcellulose) (HPC)) was 0 of 6 (2×), the survivor count (dose: 100.0 mg/kg/injection, schedule: Q01DX009 (ip), vehicle: Klucel (hydroxypropylcellulose) (HPC)) was 0 of 6 (2×) and the survivor count (dose: 200.0 mg/kg/injection, schedule: Q01DX009 (ip), vehicle: Klucel (hydroxypropylcellulose) (HPC)) was 0 of 6 (2×). For the same molecule, the survivor count (dose: 400.0 mg/kg/injection, schedule: Q01DX009 (ip), vehicle: Klucel (hydroxypropylcellulose) (HPC)) was 0 of 6 (2×).
`COC(=O)c1nnn(Cc2ccccc2)c1Cl` was tested, and the survivor count [9] was 4 of 6.
With `CC12CCC(CC1=O)C2(C)CC#N` (stereo unspecified) the survivor count (dose: 30.0 mg/kg/injection, schedule: Q01DX005 (ip), vehicle: saline) was 0 of 6, the survivor count [5] was 0 of 6 and the survivor count [6] was 0 of 6. The survivor count [7] was 0 of 6.
With `O=C(NCN1CCCCC1)c1ccccc1` the T/C (dose: 100.0 mg/kg/injection, schedule: Q01DX005 (ip), vehicle: saline with Tween-80) was 125 % of control and the survivor count (dose: 200.0 mg/kg/injection, schedule: Q01DX005 (ip), vehicle: saline with Tween-80) was 2 of 5.
With `Nc1ccc2c(SCCCCSc3c4ccccc4nc4cc(N)ccc34)c3ccccc3nc2c1` the survivor count [7] was 0 of 6.
In the case of `COC(=O)C1=NC(=O)C(C#N)=C(C(=O)OC)C1(C(=O)c1ccc(OC)cc1)c1ccc(OC)cc1` (stereo unspecified), the survivor count (dose: 240.0 mg/kg/injection, schedule: Q01DX005 (ip), vehicle: Klucel (hydroxypropylcellulose) (HPC)) is reported as 6 of 6.
In the case of `CCOC(=O)NN`, the survivor count [1] is reported as 0 of 6 and 1 of 6, the survivor count [2] is reported as 0 of 6 and the survivor count [3] is reported as 0 of 6. For the same molecule, the survivor count [4] was 0 of 6.
With `COc1cccc2c1C(=O)c1c(O)c3c(c(O)c1C2=O)C[C@@](O)(C(C)=O)C[C@@H]3OC1CC(N)C(C(C)O)O1` (stereo partly specified) the T/C (dose: 50.0 mg/kg/injection, schedule: Q04DX003 (ip), vehicle: distilled water + Tween-80) was 128 % of control and the T/C (dose: 200.0 mg/kg/injection, schedule: Q04DX003 (ip), vehicle: distilled water + Tween-80) was 125 % of control.
In the case of `COc1ccc([P+](CCN2C(=O)c3ccccc3C2=O)(c2ccc(OC)cc2)c2ccc(OC)cc2)cc1`, the T/C [8] is reported as 125 % of control, the T/C (dose: 6.0 mg/kg/injection, schedule: Q01DX009 (ip), vehicle: water) is reported as 134 % of control and the T/C (dose: 6.25 mg/kg/injection, schedule: Q01DX009 (ip), vehicle: water) is reported as 129 % of control. The T/C (dose: 9.0 mg/kg/injection, schedule: Q01DX009 (ip), vehicle: water) was 130 % of control [5 of 6 alive] and the survivor count (dose: 25.0 mg/kg/injection, schedule: Q01DX009 (ip), vehicle: water) was 2 of 6.
With `CCCCCCCCCCCCCCCCCC[N+]1(CCC(C)C)CCSCC1` the survivor count (dose: 400.0 mg/kg/injection, schedule: Q01DX001 (ip), vehicle: saline with Tween-80) was 5 of 6.
`CN1C(=O)Cc2ccccc2C1=O` was tested, and the survivor count [3] was 4 of 6.
